In patent US20230382976:

Key:
[1] = test system: Type I collagen (Rattus norvegicus); assay: binding assay; settings: purified native protein, protein details: rat tail tendon, Corning
Type II collagen = assay: binding assay; settings: turbidity at 400 nm; fibers form slower than with collagen I; purified native protein; single-stranded DNA

GATGTGAGTGTGTGACGAGCTACGACGTCTGGTGTAATTTATAAAGACACTGTGTATATCAACAACAGAACAAGGAAAGGGATGTGAGTGTGTGACGAGCTACGACGTCTGGTGTAATTTATAAAGACACTGTGTATATCAACAACAGAACAAGGAAAGG [VEGF-R2 aptamer divalent assembly]
binding result ([1]; (PEG)6 linker joining the two copies 3'-3', fibers and large macroscopic aggregates, single-stranded DNA, variant of VEGF-R2 aptamer monovalent): binds

TAATGAGAAGTATGTGTAGAGTCAATGAGATACGCAATTGGGAAGACAAGAGTATTGACTCGGACTGAGTACAATCGTCCTAATGAGAAGTATGTGTAGAGTCAATGAGATACGCAATTGGGAAGACAAGAGTATTGACTCGGACTGAGTACAATCGTCC [random ssDNA divalent assembly]
binding result ([1]; (PEG)6 linker joining the two copies, fibers formed at 30% vol collagen, single-stranded …, variant of random ssDNA oligomer monovalent 80 nt): binds

GATGTGAGTGTGTGACGAGCTACGACGTCTGGTGTAATTTATAAAGACACTGTGTATATCAACAACAGAACAAGGAAAGG [VEGF-R2 aptamer monovalent]
binding result (Type II collagen): binds

The exact form of at least one protein or probe is not confirmed.
